Residues, ends and D or L forms follow the SMILES beside them.
Legend:
Assay type in all cases: cell-based
[1] = tested on: all gram-positive bacterial strains; assay: Mean MIC and therapeutic index, gram-positive strains; conditions: ratio of MHC to GM of MICs, MHC >250 taken as 500, <0.98 as 0.49 µg/mL
Experimental: (§1) The minimal inhibitory concentrations (MICs) of peptide derivatives versus planktonic bacteria were assessed using a modification of the broth microdilution assay previously described in the National Committee for Clinical Laboratory Standards (NCCLS). In brief, bacteria at mid-logarithmic growth were collected by centrifugation at 2,500 × g for 5 min. Subsequently, the pellet was resuspended and adjusted in Mueller-Hinton Broth (MHB; BD Bacto™, USA) to an OD620 of 0.05. Fifty µL of bacterial suspensions was transferred to 96-well microplates. Later, 50 µL of peptide derivatives at 0.98–250 µg/mL in 10 mM PBS, was added to wells and incubated for 24 h at 37°C with continuous shaking at 220 rpm. […] The experiments were done in three technical replicates and repeated independently.
(§2) The therapeutic index (TI) is widely used for evaluating a peptide’s efficacy and safety. It is the ratio between the minimum hemolytic concentration (MHC, the concentration causing 10% hemolysis) and the geometric mean (GM) value of the MIC [15]. […] While, both lysine-substituted peptides (BiF2_7K and BiF2_5K7K) had higher TIs against all tested biofilm-forming bacteria than did the two parent peptides, and the TI of BiF2_5K7K was higher than that of BiF2_7K.

[2] = tested on: all gram-negative bacterial strains; assay: Mean MIC and therapeutic index, gram-negative strains; conditions: ratio of MHC to GM of MICs, MHC >250 taken as 500, <0.98 as 0.49 µg/mL
Experimental: as §1, §2

biofilm-forming bacteria = assay: Antibacterial activity against the panel of planktonic biofilm-forming bacteria; conditions: gram-positive and gram-negative TI together
Experimental: The biofilm-forming bacteria, including S. epidermidis ATCC 35984, Staphylococcus aureus ATCC 25923, Bacillus cereus ATCC 11778, Listeria monocytogenes 10403s, Pseudomonas aeruginosa ATCC 27853, Salmonella Typhimurium ATCC 13311, Escherichia coli ATCC 25922 and Acinetobacter baumanii MT strain, were used. All bacterial strains were grown on tryptic soy agar (TSA; BD Bacto™, USA) except E. coli and L. monocytogenes which were cultured on Luria agar (LA) and TSA supplemented with 0.6% Yeast Extract (TSAYE), respectively, at 37°C overnight. Subsequently, isolated colonies were inoculated and cultured in 5 mL of tryptic soy broth (TSB; BD Bacto™, USA), Luria Broth (LB), or TSB supplemented with 0.6% Yeast Extract (TSBYE) at 37°C for 16–18 h.
as §1

Compound: CC[C@H](C)[C@H](NC(=O)[C@H](CC(C)C)NC(=O)[C@H](CCCCN)NC(=O)[C@@H](NC(=O)[C@H](CC(C)C)NC(=O)[C@@H](N)Cc1ccccc1)C(C)C)C(=O)N[C@@H](CC(C)C)C(N)=O [BiF] (H-FLVKLIL-NH2; N-terminus assumed)
- TI +, therapeutic index [1]: 0.03
- TI-, therapeutic index [2]: 0.03
- therapeutic index (TI) (biofilm-forming bacteria): less than 0.2

Compound: CC[C@H](C)[C@H](NC(=O)[C@H](CC(C)C)NC(=O)[C@H](CCCCN)NC(=O)[C@@H](NC(=O)[C@H](CC(C)C)NC(=O)[C@@H](N)Cc1ccccc1)C(C)C)C(=O)N[C@@H](CCCCN)C(=O)N[C@@H](CCCCN)C(=O)N[C@H](C(=O)N[C@@H](CC(C)C)C(=O)N[C@@H](CCCNC(=N)N)C(=O)N[C@@H](CCCNC(=N)N)C(N)=O)[C@@H](C)CC [BiF2_7K] (H-FLVKLIKKILRR-NH2; N-terminus assumed)
- TI +, therapeutic index [1]: 1.60
- TI-, therapeutic index [2]: 1

Compound: CC[C@H](C)[C@H](NC(=O)[C@H](CC(C)C)NC(=O)[C@H](CCCCN)NC(=O)[C@@H](NC(=O)[C@H](CC(C)C)NC(=O)[C@@H](N)Cc1ccccc1)C(C)C)C(=O)N[C@@H](CC(C)C)C(=O)N[C@@H](CCCCN)C(=O)N[C@H](C(=O)N[C@@H](CC(C)C)C(=O)N[C@@H](CCCNC(=N)N)C(=O)N[C@@H](CCCNC(=N)N)C(N)=O)[C@@H](C)CC [BiF2] (H-FLVKLILKILRR-NH2; N-terminus assumed)
- TI +, therapeutic index [1]: 0.06
- TI-, therapeutic index [2]: 0.05
- therapeutic index (TI) (biofilm-forming bacteria): less than 0.2

Compound: CC[C@H](C)[C@H](NC(=O)[C@H](CCCCN)NC(=O)[C@H](CCCCN)NC(=O)[C@@H](NC(=O)[C@H](CC(C)C)NC(=O)[C@@H](N)Cc1ccccc1)C(C)C)C(=O)N[C@@H](CCCCN)C(=O)N[C@@H](CCCCN)C(=O)N[C@H](C(=O)N[C@@H](CC(C)C)C(=O)N[C@@H](CCCNC(=N)N)C(=O)N[C@@H](CCCNC(=N)N)C(N)=O)[C@@H](C)CC [BiF2_5K7K] (H-FLVKKIKKILRR-NH2; N-terminus assumed)
- TI +, therapeutic index [1]: 2.51
- TI-, therapeutic index [2]: 5.33

Compound: CC[C@H](C)[C@H](NC(=O)CN)C(=O)NCC(=O)N[C@@H](C)C(=O)N[C@H](C(=O)N[C@@H](CC(C)C)C(=O)N[C@@H](CCCCN)C(=O)N[C@H](C(=O)N[C@@H](CC(C)C)C(=O)N[C@H](C(=O)N[C@H](C(=O)NCC(=O)N[C@@H](CC(C)C)C(=O)N1CCC[C@H]1C(=O)N[C@@H](C)C(=O)N[C@@H](CC(C)C)C(=O)N[C@H](C(=O)N[C@@H](CO)C(=O)N[C@@H](Cc1c[nH]c2ccccc12)C(=O)N[C@H](C(=O)N[C@@H](CCCCN)C(=O)N[C@@H](CCCNC(=N)N)C(=O)N[C@@H](CCCCN)C(=O)N[C@@H](CCCNC(=N)N)C(=O)N[C@@H](CCC(N)=O)C(=O)N[C@@H](CCC(N)=O)C(N)=O)[C@@H](C)CC)[C@@H](C)CC)[C@@H](C)O)[C@@H](C)O)C(C)C)C(C)C [Melittin, melittin, reference compound]
- TI +, therapeutic index [1]: 0.07
- TI-, therapeutic index [2]: 0.03
- therapeutic index (TI) (biofilm-forming bacteria): less than 0.2

From article PMC11100219, “Dual-function antimicrobial-antibiofilm peptide hybrid to tackle biofilm-forming Staphylococcus epidermidis” (Annals of Clinical Microbiology and Antimicrobials, 2024)
